According to paper PMC6925144, “A prospective compound screening contest identified broader inhibitors for Sirtuin 1” (Scientific Reports, 2019):
In all, about 3,200 compounds were measured (“TSA(without NAD+) / Primary screening (TSA) / delta Tm (K)”: median about -0.07, highest 2% from about 0.37 on). This is one part of the list. Peptide text beside a SMILES is read from it.

Amino acid sequences for entries named in this document (tags omitted). Residues count along the entry.
UniProt Q96EB6, 2-747 limits assumed: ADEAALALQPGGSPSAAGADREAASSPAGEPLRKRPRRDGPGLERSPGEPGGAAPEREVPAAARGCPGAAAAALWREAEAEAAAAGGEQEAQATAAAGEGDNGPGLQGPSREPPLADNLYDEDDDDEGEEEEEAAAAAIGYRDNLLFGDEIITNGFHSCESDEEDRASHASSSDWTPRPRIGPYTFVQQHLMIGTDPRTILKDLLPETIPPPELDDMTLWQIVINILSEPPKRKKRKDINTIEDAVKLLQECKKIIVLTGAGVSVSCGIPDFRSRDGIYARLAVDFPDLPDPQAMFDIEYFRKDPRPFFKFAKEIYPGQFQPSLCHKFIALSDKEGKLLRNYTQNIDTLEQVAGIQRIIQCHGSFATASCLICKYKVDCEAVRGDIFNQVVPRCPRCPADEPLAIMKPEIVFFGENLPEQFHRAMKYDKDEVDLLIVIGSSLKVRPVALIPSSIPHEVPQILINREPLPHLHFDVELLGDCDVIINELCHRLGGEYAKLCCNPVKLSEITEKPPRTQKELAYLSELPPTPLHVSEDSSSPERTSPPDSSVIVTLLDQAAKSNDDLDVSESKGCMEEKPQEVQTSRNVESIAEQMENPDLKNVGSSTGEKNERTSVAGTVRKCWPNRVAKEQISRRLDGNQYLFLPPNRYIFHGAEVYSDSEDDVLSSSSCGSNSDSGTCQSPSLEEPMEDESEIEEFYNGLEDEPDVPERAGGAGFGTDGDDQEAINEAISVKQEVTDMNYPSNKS

biological target: NAD-dependent deacetylase Sirtuin 1 (human, UniProt Q96EB6); assay: primary screen, delta tm; design: single well (n = 1); conditions: 10 µM
Summary of the method: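 Thermal shift of Sirtuin 1 measured without NAD+, compound at 10 µM (n = 1); value is ΔTm, with hits defined as ΔTm > 0.45 K or < −1.5 K. Hits retested at 5, 10, 20 µM (n = 4) and counterscreened on bovine carbonic anhydrase and ABL1 SH2 domain.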

Structure (SMILES) | TSA(without NAD+) / Primary screening (TSA) / delta Tm (K)
CCOc1nc2cc(C(=O)O[C@H]3CCOC3)ccc2[nH]1 | -0.28
Cc1cc(C)n(CC(=O)N/N=C/c2cn(-c3ccccc3)nc2-c2cc3ccccc3oc2=O)n1 | -0.12
O=C1CN(c2ccc(NC(=O)CCCc3nc4ccccc4[nH]3)cn2)CCN1 | -0.08
COc1ccccc1CC(=O)Nc1cc2c(=O)[nH]cnc2cc1F | -0.03
Cc1ccccc1C(=O)NCC(=O)OC(C)C(=O)NCc1ccco1 (stereo not drawn) | -0.12
O=C1NC(=O)C(=Cc2ccc(-c3ccc(Cl)c(Cl)c3)o2)C(=O)N1 | -0.37
Nc1ccc2c(c1)ncn2-c1ccccc1 | 0.16
CC(c1nc(-c2ccccc2)no1)N1CCN(c2nc(C(F)(F)F)nc3ccccc23)CC1 (stereo not drawn) | 0.29
O=c1cc(COc2cccc([N+](=O)[O-])c2)nc2ccccn12 | -0.13
CC(C)(C)CC(N)CN (stereo not drawn) | -0.32
NCCCCF | -0.23
CC(OC(=O)CCc1nc2ccccc2c(=O)[nH]1)C(=O)NCc1ccco1 (stereo not drawn) | -0.12
CCCCCCOc1ccc(C=C2C(=O)NC(=S)NC2=O)cc1 | 0.12
CC(O)CNc1ncnc2ccsc12 (stereo not drawn) | 0.02
CCC(=O)NN | -0.13
c1ccc2c(c1)oc1c(N3CCN(Cc4cn5ccccc5n4)CC3)ncnc12 | -0.03
Cc1nc(N2CCC(C(N)=O)CC2)c2c3c(sc2n1)CCC3 | 0.07
CCn1c(-c2ccccc2)c(C(=O)CCl)c2ccccc21 | -0.13
CNS(=O)(=O)NCC(=O)O | 0.06
Cc1cc(C(=O)COC(=O)C23CC4CC(CC(C4)C2)C3)c(C)n1Cc1ccc2c(c1)OCO2 | 0.02
COc1ccc(N(C)S(=O)(=O)c2cccc(C(=O)Nc3ccc(Br)cc3)c2)cc1 | 0.36
CC(=O)Nc1ccc(S(=O)(=O)N(C)CC(=O)Nc2ccc(C34CC5CC(CC(C5)C3)C4)cc2)cc1 | -0.07
O=C(Nc1ccc(N2CCN(Cc3ccccc3)CC2)cc1)c1oc2ccccc2c1COc1ccccc1 | -0.18
NC(=O)C1CCCC1Nc1nc(C2CC2)ns1 (stereo not drawn) | -0.02

Structure (SMILES) | TSA(without NAD+) / Primary screening (TSA) / delta Tm (K)
CCCC(O)CN (stereo not drawn) | -0.18
O=C1NC2(CCOc3ccccc32)C(=O)N1Cc1cccc2ccccc12 (stereo not drawn) | -0.08
Cc1cc(C(=O)Nc2ccc3c(c2)OC2(CCCC2)O3)c2ccccc2n1 | 0.02
CN(c1ccccc1C(N)=O)S(=O)(=O)c1cccc(C#N)c1 | -0.14
Cc1ccc(CCC(=O)Nc2cc(C(N)=O)ccc2N2CCCCC2)cc1Cl | 0.09
O=C1NC(=S)NC(=O)C1=Cc1ccc(-c2ccc(SC(F)F)cc2)o1 | -0.34
Cc1ccc2c(COC(=O)C(CCS(C)(=O)=O)NC(=O)c3ccccc3)cc(=O)oc2c1 (stereo not drawn) | -0.23
O=C(CCc1nc2ccccc2o1)N1CCN(C(c2ccc(F)cc2)c2ccc(F)cc2)CC1 | -0.28
COc1cccc(-c2nnc(SC3CCCCC3=O)n2-c2ccccc2)c1 (stereo not drawn) | -0.14
C=CCOc1ccc(C(=O)C2=C(O)C(=O)N(CCCN3CCOCC3)C2c2cccs2)cc1 (stereo not drawn) | -0.13
Cc1cccc(Oc2ccc(NC(=O)c3cncc(Br)c3)cc2)c1 | -0.04
OCCCNc1ccc2nnc(C(F)(F)F)n2n1 | -0.13
NC(=O)C1CCN(c2ncnc3cc(-c4ccc(Cl)cc4)sc23)C1 (stereo not drawn) | -0.03
Cc1nc2c(cnn2-c2ccc(F)cc2)c(=O)[nH]1 | -0.22
Cc1ccc(N(C)S(=O)(=O)c2cccc(C(=O)Nc3ccc4c(c3)C(=O)N(C)C4=O)c2)cc1 | 0.45
Cc1cc(C)c(NCc2cc(=O)n3ccsc3n2)c(Cl)c1 | -0.03
NC(=O)c1ccc(NC(=O)c2sccc2S(=O)(=O)N2CCCCC2)cc1 | -0.03
CC(=O)NCC(=O)NCC(=O)N(C)C (Ac-Gly-Gly-NMe2) | -0.11
CN(c1cccc(Cl)c1)S(=O)(=O)c1cccc(C(=O)Nc2cccc(C#N)c2)c1 | 0.32
CN(C(=O)Cc1cccc2ccccc12)C1C2CC3CC(C2)CC1C3 (stereo not drawn) | -0.22
CC(Oc1ccc2[nH]c3ccccc3c(=O)c2c1)C(=O)NC(=O)NC12CC3CC(CC(C3)C1)C2 (stereo not drawn) | 0.35
O=C(COC(=O)CN1C(=O)C2CCCCC2C1=O)Nc1cc(C(F)(F)F)ccc1Cl (stereo not drawn) | 0.02
COc1ccc(CN(C(=O)COC(=O)c2ccc(C(N)=O)cc2)C2CC2)cc1 | 0.08
O=C1CC(Cc2ccccc2)C(=O)N1 (stereo not drawn) | -0.14

Ordered by length of the SMILES (smallest number first): nine of the compounds above
Structure (SMILES) | TSA(without NAD+) / Primary screening (TSA) / delta Tm (K)
O=C1CC(Cc2ccccc2)C(=O)N1 (stereo not drawn) | -0.14
CC(=O)NCC(=O)NCC(=O)N(C)C (Ac-Gly-Gly-NMe2) | -0.11
OCCCNc1ccc2nnc(C(F)(F)F)n2n1 | -0.13
Cc1cc(C)c(NCc2cc(=O)n3ccsc3n2)c(Cl)c1 | -0.03
CN(c1ccccc1C(N)=O)S(=O)(=O)c1cccc(C#N)c1 | -0.14
CN(C(=O)Cc1cccc2ccccc12)C1C2CC3CC(C2)CC1C3 (stereo not drawn) | -0.22
O=C1NC2(CCOc3ccccc32)C(=O)N1Cc1cccc2ccccc12 (stereo not drawn) | -0.08
O=C1NC(=S)NC(=O)C1=Cc1ccc(-c2ccc(SC(F)F)cc2)o1 | -0.34
Cc1ccc2c(COC(=O)C(CCS(C)(=O)=O)NC(=O)c3ccccc3)cc(=O)oc2c1 (stereo not drawn) | -0.23
